These are yes or no findings as the source states them, for the method shown. Some results given as binding are weak or reduced against the parent protein; the word gives no strength.
Target: T1, Norrin (human, from the SUMO-Norrin construct, SUMO removed) (human), Q00604
T1 chain: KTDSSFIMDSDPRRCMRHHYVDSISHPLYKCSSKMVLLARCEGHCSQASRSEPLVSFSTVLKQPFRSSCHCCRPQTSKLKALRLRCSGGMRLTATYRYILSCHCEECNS
Assay: crystal structure
Conditions: remark: other sources report otherwise

- binding: binds
B1: Norrin (human, from the SUMO-Norrin construct, SUMO removed), Q00604 25-133 (ligand)
chain: T1 chain

Source: article doi:10.1101/2022.09.29.510199
